Test results reported in PubChem BioAssay AID1347423 (Functional Genomics Laboratory (NCATS/FGL), 2020).
In all, about 52,000 sequences went through this assay and about 210 (0.4%) were called active.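 Rule for the calls: active = gene whose silencing raises cell survival under the drug, median off-target-corrected z-score across its silencing RNAs 2 or more; inactive = the rest.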 The list shows a part of the results.

Assay: Resistance to Poly (ADP-Ribose) Polymerase inhibitor: Gene Identification via Genome-wide siRNA Screen
Conditions: mouse BRCA2 R2336H ES cells, olaparib, CellTiter-Glo viability; active compounds read high
Method in brief: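 Mouse BRCA2 R2336H ES cells were reverse-transfected with siRNA (20 nM final), treated at 48 h with 500 nM olaparib, and read by CellTiter-Glo after 72 h. Scores: MAD-based z per siRNA, median per gene, seed off-target correction.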

Sequence	z-score
GAAAGCGAUGGAGAUCUUATT against Cxcl4	inactive: -0.0865
GGUUUAGCUGCAUUAAAAGTT against Lrrc27	inactive: 1.81
CCGGUUACAAACUCAACUGTT against 4831426I19Rik	inactive: -0.788
CCAGAAAACUCAGUUUGAATT against 6530407C02Rik	inactive: 0.0295
GGCAUGUCUACACACCAUCTT against Ankra2	inactive: 1.57
GGACAUGCUCUAUAAGAAGTT against Pabpc5	inactive: 0.961
GGGAUUUAAAAGGAAAUGUTT against 9830147J24Rik	inactive: 0.719
GGAUUAUUUCCUUUCUUUGTT against 4933403M22Rik	inactive: -0.422
GCGACUUCAGAUUUCAUUATT against Sfrs2	inactive: -2.65
GGUAAUUCAGUCUUAUACATT against Pcdhb21	inactive: 1.27
GCAUAAUGACCAUGUCUGUTT against 1700001J03Rik	inactive: -0.102
GGAAGAAAGACUAGACUCGTT against 6230401O10Rik	inactive: 0.315
GCUGACAUUGAGAAUCGGGTT against Hcph	inactive: 1.47
GGGAGUGAAUCAUUAUCUUTT against 8030499H02Rik	inactive: 0.146
CCCAAUUUUUAGUCUUAUGTT against D330012F22Rik	inactive: 0.0439
GGAGAUCCAAGAGAAAUUUTT against Csf3r	inactive: -0.0129
GCCUCGUAUAGAGAAGUGATT against Gnat1	inactive: -0.388
GGAAGAAACAUGUAUCAUGTT against Tff1	inactive: -0.149
GUAUCCUUAUUUUUGCCCATT against V1rb3	inactive: -0.663
GGCCUCCUAAGAGGACUCATT against Dach1	inactive: -0.306
GGCAACAUUAUCAACAUGUTT against Dhrs6	inactive: 0.0969
GGCAGAGAAGCAAAACCAATT against 1700012F17Rik	inactive: -1.2
GGAAGAAAAUGAGAGCACUTT against Spt2	inactive: -0.504
GGACUUUAUCAAGGAGUAATT against Mftc	inactive: -0.878
GGCAGUACCACUUGUCUUATT against Tctex1	inactive: -0.814
GGAUUUCAACUAUUUGUUGTT against Spna1	inactive: 0.374

Part of the list above in another layout.
Sequence | z-score
GCUGACAUUGAGAAUCGGGTT against Hcph | inactive: 1.47
GGGAGUGAAUCAUUAUCUUTT against 8030499H02Rik | inactive: 0.146
GGCAACAUUAUCAACAUGUTT against Dhrs6 | inactive: 0.0969
GGCAGUACCACUUGUCUUATT against Tctex1 | inactive: -0.814
GGAUUUCAACUAUUUGUUGTT against Spna1 | inactive: 0.374

Continuation:

Sequence	z-score
GGACAUGGAGAACCUUUUUTT against 0710008K08Rik	inactive: -0.731
GGAUGGAACUUACAACUGGTT against SIRP-beta	inactive: -1.18
CCUCUUUGGAAGAAUGCUGTT against Mapk11	inactive: 0.306
GGAAAAUCAGCAUUUUGCCTT against Cdca3	inactive: 0.893
GCAGAUCUCCGAUUAUUUUTT against Doc2b	inactive: 1.18
GGACUUCAAAUGCUGUGGCTT against 1110014F12Rik	inactive: -0.562
GGGAAAAUGCUUUGUUGGATT against Rqcd1	active: 1.97
GGUGAGACGUGCUUCAAAUTT against D130058I21Rik	inactive: -0.52
GCCUCCCUGAAUGCCUAUATT against Sectm1	inactive: -2.4
GGUACCUGUGCUAUGGAGUTT against C230052I12Rik	inactive: 0.182
GGUGCCCUAUGGAGAGAAATT against Serac1	inactive: -0.0661
GGAGGAAGAUUUUUUUGCUTT against Arfgap3	inactive: 1.44
GAGAAUAAUACCAUCUCCUTT against Olfr482	inactive: 0.757
GCUCAGUUUACCACACGAGTT against Arl11	inactive: -1.19
GCUCAAUCUAGGGCGAAGATT against Cd3z	inactive: -1.17
GCUGAAAACUAGUCAGUCCTT against Epn3	inactive: -0.288
GGCCAUUAUUCGUGAGUUGTT against 2810037C14Rik	inactive: -0.0825
GCCUAGACCAGACACCAAATT against Prp15	inactive: 1.2
GGACCAAGGGUUCAUAGCATT against Wdr35	inactive: 0.862
GGAAGCUGCACGGCAACUUTT against Btn2	inactive: -0.644
GGAGAAGAGGACUUUGGUGTT against Tmem10	inactive: 1.01
CCAUUCACAGGUAGAGGAATT against AA415817	inactive: 1.52
CCCUAGAAGAGCUCUGUUATT against Cts6	inactive: -0.275
GGUGACAAAAGUCUUUAACTT against Mkrn3	inactive: 0.361
CGAUGAUUAACAUCUUACGTT against Scrn1	inactive: -0.0702
GGUAUAAAGCCUCAGUUUUTT against Odag	inactive: 0.234

Sequence	z-score
GCGGCAGUAAAUUGUGAGGTT against Grin3b	inactive: -0.406
GCCUAGACCAGAGAAAGGUTT against AW555464	inactive: 0.139
GGUGAAAAUACAUUGCCAGTT against Plk4	inactive: -0.482
GGUGCCGAACGUGUAAUUATT against Rarb	inactive: -0.423
GGGCAAAGAUCAAAGAGAUTT against Man1a	inactive: 0.563
GGAUAACCAAAGGAAUGUUTT against Cldn17	inactive: 0.39
GGAAGGUUGUAAGUUUAAATT against Krtap14	inactive: 1.18
GGGCCAACAGAAACAGAAGTT against Otp	inactive: 1.84
GGGCCUUUAAAGUAGUUGATT against D930018N13	inactive: -0.162
GCAAGCUGAACUACUUGAGTT against Ern1	inactive: 1.1
CCAAUCAUGAUCUGGGCUCTT against Gng4	inactive: 1.64
GGUUGCACUCAUCUUAAAATT against Zfp9	inactive: -0.519
GCACUUAUGGUUUAGAUGUTT against Prdm8	inactive: -0.158
GGGAGGACAUCCAGACAAUTT against AW060714	inactive: -3.37
GCAAACUUAUUACCAGGGATT against Shc3	inactive: -0.383
GCUAAGGACACGCUCUAUCTT against Sema5b	inactive: 0.241
GCGUGCUUUGAAGAGGUUGTT against Olfr298	inactive: -1.18
CGGUUAGUCUGUCAGUAUCTT against Xrcc3	inactive: -0.854
GCAAGUCCAUUCUUUUUCATT against 9930032O22Rik	inactive: -0.537
GGAGGCCACCAAAAUUAACTT against Kif17	inactive: -0.487
CGAGAAGACCAUCAUCAUATT against Rbbp9	inactive: 0.497
CCUGUAAGGUCUCUAGCAUTT against Exosc1	inactive: 0.0218
CCGAAGUCAAUGAAGCUCUTT against 5730591C18Rik	inactive: 0.345
GGUCUUUGACAUUUUGAAUTT against 4921513O20Rik	inactive: 0.16
GGCGAUCCUUACUCCAAUGTT against Zfp90	inactive: 0.2
CCAGUCAAAAGGAAAUGAATT against Dclre1a	inactive: -0.241

Part of the list above, with bars between the fields:
Sequence | z-score
GCGACUUCAGAUUUCAUUATT against Sfrs2 | inactive: -2.65
GGCAGAGAAGCAAAACCAATT against 1700012F17Rik | inactive: -1.2
GGAUGGAACUUACAACUGGTT against SIRP-beta | inactive: -1.18
GCAGAUCUCCGAUUAUUUUTT against Doc2b | inactive: 1.18

(next part)

Sequence	z-score
GGCUUUGAGAGGAACACCATT against D030001E08	inactive: 2.85
GGACCAGGUCCGUUGGAAUTT against Efna1	inactive: -0.424
GGAGAUGAUGUCACCUACATT against BC003236	inactive: -1.93
CCCAUCAAUGCUGUUAAUUTT against Entpd5	inactive: 0.715
GGACUAUGUCUUUGACAAATT against Cdyl2	inactive: 0.465
CGAAGGAUUCAGAUAAAGUTT against Trim13	inactive: 0.00771
GGAGAUAAAAGUUUCAUCUTT against Jmjd2b	inactive: 0.46
GGGCUCAUGGCUUUGUUUUTT against 1110019N10Rik	inactive: -0.477
GGUCGUCCCAUCAAUGUGCTT against Cpa1	inactive: 2.99
GGAGGAACGGAAAAAGGUUTT against 1700088E04Rik	inactive: 0.169
GGUCAUGACAGGAUACCCATT against C630035N08Rik	inactive: 1.46
GCAACAACUACGCAUGCUCTT against Snap25	inactive: -0.391
GCAAUGGAAUUCUCGUGCCTT against Cth	inactive: 0.233
CGGGCUGGAAGAAAUCUCUTT against Rhox3	inactive: 0.716
GGAUUUGGUGCAUCUUCCGTT against Olfr609	inactive: -0.617
GGUUAUUUCUUUGCUUUGCTT against Apod	inactive: 0.649
GGCAAAAUGAGUGAGAGGUTT against A030007L17Rik	inactive: -0.038
GGCCGAAGACCCUAAUUUATT against Cklfsf7	inactive: 0.742
CCCAAGUGCUAACCUAAUATT against 1700020C11Rik	inactive: 0.568
GGGUGGAUUGAGAACAUCATT against 2400002F02Rik	inactive: -0.682
CGGUCUGUGAAAGAUGCAGTT against Vps24	inactive: -2.21
GGUUCUGUACCAUCUUCAGTT against Rab40c	inactive: -0.0707
GCCGGGAGAGUAAUGUCUGTT against BC059845	inactive: -1.15
GGGAGUUUUUAUAUGGUUUTT against A130042E20Rik	inactive: -0.657
GCAGCAACAAGAAAUCAGCTT against 1700058C13Rik	inactive: 0.781
